Laboratory results from the supplement of paper PMC11006884.
What follows is the remainder of the data, with few or none of the targets with a hit. Single values of this set are uncertain. The entries are a selection whose mix differs from that of the whole data set.

Chains of the proteins cited; added tags and fusions are not shown. Lines headed by an entry give the natural chain unless they say otherwise; changes in a name come on top.
UniProt Q9H4I3: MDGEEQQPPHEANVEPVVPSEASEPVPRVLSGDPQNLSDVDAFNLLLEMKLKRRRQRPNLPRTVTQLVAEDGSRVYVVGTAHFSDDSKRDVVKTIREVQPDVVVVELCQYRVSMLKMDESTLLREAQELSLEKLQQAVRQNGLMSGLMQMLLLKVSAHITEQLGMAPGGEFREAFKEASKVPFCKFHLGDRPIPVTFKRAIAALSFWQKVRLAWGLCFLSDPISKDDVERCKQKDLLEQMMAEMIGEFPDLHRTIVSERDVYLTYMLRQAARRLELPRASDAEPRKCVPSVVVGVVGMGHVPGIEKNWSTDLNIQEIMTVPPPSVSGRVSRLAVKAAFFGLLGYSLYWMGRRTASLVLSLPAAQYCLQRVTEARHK
UniProt Q9H9S5: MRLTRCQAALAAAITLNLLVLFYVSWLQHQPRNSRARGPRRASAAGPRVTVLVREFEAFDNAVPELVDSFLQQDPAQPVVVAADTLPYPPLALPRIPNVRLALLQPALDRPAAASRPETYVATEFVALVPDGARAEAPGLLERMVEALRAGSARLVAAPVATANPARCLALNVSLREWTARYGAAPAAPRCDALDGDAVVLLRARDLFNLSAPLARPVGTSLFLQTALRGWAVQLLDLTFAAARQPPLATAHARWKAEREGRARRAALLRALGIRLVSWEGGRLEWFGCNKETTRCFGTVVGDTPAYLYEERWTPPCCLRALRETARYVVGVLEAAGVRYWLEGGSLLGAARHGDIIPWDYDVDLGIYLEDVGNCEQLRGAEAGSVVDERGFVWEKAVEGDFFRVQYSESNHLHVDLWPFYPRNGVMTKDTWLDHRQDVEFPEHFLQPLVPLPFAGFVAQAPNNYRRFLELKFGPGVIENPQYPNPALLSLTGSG
UniProt Q9H8H2: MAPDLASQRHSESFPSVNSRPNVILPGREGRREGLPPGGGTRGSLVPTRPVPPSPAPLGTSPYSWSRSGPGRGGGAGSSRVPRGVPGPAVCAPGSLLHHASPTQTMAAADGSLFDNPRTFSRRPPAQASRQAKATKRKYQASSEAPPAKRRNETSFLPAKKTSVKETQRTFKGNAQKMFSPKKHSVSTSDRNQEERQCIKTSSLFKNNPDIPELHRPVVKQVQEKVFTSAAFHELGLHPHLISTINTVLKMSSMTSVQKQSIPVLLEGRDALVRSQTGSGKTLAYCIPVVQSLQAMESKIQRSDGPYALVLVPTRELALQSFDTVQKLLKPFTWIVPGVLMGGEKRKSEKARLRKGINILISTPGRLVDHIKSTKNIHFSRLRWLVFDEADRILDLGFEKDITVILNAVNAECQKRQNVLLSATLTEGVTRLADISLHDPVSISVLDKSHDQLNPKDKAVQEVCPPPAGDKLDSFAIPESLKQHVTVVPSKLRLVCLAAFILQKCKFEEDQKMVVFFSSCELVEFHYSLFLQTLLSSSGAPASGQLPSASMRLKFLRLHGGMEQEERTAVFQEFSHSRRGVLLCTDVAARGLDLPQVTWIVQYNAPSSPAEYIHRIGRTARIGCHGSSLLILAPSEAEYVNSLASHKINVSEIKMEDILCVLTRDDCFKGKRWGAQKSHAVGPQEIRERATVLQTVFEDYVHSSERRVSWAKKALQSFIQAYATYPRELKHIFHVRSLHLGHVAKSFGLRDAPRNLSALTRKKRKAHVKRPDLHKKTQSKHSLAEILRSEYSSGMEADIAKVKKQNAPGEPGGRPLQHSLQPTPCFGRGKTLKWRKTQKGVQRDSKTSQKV
UniProt Q9HD20: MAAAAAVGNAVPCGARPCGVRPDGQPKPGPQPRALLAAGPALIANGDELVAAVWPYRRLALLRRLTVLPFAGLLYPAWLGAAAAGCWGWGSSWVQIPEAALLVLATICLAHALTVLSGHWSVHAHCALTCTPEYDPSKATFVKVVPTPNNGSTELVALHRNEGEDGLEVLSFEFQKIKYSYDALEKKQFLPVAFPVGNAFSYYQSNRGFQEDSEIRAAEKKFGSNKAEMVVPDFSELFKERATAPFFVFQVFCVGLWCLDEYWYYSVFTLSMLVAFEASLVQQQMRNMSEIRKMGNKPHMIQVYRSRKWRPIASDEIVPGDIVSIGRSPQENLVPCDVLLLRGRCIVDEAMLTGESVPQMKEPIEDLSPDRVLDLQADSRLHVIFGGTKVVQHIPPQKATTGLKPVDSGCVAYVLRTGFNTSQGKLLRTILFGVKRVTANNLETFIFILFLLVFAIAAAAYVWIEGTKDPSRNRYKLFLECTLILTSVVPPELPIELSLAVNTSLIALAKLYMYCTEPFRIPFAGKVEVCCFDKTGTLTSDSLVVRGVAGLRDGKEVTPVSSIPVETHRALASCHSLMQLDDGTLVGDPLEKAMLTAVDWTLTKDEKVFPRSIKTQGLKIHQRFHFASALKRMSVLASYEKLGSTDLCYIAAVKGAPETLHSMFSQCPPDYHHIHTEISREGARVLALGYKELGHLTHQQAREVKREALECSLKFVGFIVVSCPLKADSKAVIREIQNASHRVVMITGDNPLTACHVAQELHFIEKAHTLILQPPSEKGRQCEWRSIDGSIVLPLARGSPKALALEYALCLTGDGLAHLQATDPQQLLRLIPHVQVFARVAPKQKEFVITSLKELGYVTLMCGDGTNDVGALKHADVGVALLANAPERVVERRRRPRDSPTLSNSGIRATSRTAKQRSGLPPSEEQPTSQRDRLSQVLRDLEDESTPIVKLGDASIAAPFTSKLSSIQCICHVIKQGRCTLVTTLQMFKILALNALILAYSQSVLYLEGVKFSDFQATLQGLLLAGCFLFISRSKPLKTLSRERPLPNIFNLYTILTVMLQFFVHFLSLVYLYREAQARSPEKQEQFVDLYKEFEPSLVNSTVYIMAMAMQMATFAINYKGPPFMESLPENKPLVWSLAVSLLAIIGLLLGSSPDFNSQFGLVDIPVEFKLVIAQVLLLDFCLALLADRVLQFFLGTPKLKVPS
UniProt Q9HCS7: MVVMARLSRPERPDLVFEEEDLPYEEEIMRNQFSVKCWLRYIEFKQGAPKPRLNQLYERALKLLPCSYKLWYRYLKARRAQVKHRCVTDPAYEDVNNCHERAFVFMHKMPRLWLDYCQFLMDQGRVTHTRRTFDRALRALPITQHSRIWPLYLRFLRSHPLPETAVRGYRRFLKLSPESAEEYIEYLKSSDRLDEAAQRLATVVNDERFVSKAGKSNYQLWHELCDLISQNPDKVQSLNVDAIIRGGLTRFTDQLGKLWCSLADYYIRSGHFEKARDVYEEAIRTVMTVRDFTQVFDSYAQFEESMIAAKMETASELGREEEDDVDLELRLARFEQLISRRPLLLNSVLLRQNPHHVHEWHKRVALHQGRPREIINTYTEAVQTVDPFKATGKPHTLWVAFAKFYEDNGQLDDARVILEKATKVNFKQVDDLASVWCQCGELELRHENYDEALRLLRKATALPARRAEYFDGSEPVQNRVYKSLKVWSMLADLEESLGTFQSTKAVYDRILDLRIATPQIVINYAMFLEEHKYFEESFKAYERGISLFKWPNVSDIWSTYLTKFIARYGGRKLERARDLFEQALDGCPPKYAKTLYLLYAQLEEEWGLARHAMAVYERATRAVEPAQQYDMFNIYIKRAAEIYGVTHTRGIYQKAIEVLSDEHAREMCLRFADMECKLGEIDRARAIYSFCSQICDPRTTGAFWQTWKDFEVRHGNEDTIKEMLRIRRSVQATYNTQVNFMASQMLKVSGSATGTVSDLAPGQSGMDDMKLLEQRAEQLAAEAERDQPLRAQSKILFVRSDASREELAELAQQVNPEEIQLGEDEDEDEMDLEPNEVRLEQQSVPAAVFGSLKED
UniProt Q9NSD9: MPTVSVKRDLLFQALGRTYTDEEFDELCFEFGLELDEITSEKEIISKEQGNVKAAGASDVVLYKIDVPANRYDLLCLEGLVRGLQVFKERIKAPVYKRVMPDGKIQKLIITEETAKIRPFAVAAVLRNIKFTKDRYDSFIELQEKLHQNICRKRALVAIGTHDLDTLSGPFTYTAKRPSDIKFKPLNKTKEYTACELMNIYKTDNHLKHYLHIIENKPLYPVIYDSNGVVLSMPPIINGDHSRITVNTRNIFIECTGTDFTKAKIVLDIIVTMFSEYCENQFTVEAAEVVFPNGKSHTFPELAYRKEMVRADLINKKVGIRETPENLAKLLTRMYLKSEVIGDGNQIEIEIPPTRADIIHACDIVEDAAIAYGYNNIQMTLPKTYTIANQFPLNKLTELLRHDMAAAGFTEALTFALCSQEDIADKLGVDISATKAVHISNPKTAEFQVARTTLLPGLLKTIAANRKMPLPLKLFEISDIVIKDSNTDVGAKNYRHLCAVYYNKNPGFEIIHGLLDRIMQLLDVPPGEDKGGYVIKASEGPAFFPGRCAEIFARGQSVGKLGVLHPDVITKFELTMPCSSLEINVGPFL
UniProt Q9H9B1: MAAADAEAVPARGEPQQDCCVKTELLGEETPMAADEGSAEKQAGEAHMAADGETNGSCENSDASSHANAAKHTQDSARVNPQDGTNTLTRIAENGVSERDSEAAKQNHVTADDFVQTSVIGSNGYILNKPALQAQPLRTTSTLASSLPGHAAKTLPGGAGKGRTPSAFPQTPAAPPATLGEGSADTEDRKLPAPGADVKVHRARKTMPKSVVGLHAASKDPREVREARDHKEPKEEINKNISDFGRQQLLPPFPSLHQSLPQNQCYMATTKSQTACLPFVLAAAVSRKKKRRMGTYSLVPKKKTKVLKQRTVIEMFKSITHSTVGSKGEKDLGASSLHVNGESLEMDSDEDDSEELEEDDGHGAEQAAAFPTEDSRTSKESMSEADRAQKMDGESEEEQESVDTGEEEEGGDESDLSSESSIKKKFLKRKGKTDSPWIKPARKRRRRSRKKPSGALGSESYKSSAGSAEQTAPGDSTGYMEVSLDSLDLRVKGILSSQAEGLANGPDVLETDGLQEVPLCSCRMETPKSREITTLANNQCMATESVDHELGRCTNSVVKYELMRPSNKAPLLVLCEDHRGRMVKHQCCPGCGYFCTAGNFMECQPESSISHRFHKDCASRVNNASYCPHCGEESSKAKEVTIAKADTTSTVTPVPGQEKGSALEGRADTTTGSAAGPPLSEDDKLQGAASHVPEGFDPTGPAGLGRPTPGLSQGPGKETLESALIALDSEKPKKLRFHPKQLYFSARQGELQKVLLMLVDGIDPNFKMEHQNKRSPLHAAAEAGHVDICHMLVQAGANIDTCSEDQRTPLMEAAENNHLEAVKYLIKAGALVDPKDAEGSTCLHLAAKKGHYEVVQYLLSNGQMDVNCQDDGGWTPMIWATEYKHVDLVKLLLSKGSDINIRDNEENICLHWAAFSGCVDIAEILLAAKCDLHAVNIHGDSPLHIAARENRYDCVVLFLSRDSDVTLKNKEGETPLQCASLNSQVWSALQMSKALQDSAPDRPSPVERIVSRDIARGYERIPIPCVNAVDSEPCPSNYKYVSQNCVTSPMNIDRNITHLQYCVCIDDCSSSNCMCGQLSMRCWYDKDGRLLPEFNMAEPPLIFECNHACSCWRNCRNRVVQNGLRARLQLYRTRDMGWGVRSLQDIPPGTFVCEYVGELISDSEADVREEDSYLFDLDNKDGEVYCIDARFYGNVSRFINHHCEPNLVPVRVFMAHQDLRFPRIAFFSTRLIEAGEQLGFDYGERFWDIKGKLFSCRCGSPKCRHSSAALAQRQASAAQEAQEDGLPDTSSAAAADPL
UniProt Q9HBH5: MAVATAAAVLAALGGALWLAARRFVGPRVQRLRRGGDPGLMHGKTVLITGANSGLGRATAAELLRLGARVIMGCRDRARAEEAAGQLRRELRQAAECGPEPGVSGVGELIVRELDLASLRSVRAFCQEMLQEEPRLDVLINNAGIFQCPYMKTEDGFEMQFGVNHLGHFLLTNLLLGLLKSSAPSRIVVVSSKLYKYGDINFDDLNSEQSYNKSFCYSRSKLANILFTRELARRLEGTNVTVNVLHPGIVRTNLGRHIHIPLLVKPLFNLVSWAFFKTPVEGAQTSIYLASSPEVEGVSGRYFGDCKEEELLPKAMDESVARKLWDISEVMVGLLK
UniProt Q9HC38: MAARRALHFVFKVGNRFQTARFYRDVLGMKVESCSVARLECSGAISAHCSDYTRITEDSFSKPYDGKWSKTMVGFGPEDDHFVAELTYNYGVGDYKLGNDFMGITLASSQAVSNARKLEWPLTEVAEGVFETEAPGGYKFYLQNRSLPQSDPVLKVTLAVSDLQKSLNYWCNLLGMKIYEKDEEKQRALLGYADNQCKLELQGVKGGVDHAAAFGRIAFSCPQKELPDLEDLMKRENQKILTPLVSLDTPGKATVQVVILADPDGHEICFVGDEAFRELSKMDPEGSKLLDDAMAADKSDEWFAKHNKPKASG
UniProt Q9NQT5, whole entry: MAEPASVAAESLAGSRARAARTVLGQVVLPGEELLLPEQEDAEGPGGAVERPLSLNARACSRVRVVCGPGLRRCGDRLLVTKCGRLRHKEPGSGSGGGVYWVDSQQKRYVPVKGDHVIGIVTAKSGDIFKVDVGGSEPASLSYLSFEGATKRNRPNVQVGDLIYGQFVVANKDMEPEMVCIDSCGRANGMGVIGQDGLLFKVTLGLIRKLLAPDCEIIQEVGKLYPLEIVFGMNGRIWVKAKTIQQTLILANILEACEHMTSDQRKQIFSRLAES

These targets were tested with COC(=O)/C=C/c1ccccc1 [methyl cinnamate] (assay: log2 ratio of iodoacetamide-alkyne labeling of the cysteine site, DMSO over compound (competition); higher = stronger covalent engagement of the cysteine by the compound, active = 1 or more). Settings: 500 µM; treatment time 1 h; system: HEK293T cell lysate.
Procedure, shortened: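 Three replicates, each with duplicate channels, were prepared from HEK293T lysate (2 mg/mL) treated with vehicle or electrophile at 500 µM for 1 h at ambient temperature. Iodoacetamide alkyne was then applied for 1 h, and samples were clicked to sCIP-TMT reagents, pooled, trypsin-digested overnight at 37 °C, enriched on streptavidin, acid-eluted and analysed on Orbitrap Eclipse LC-MS/MS with FAIMS, with FragPipe quantification. The log2 competition ratio per cysteine is the mean control-channel divided by the mean compound-channel reporter intensity. Cysteines quantified in only one replicate were left out.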

log2 ratio of iodoacetamide-alkyne labeling, inactive:
ATG3 C182 (UniProt Q9NT62) 0.451
TRABD C287 (UniProt Q9H4I3) 0.316
FKRP C296 (UniProt Q9H9S5) 0.415
DDX31 C286 (UniProt Q9H8H2) 0.105
RMI1 C268 (UniProt Q9H9A7) 0.285
CXorf56 C11 (UniProt Q9H5V9) 0.175
CENPH C35 (UniProt Q9H3R5) 0.316
ATP13A1 C574 (UniProt Q9HD20) -0.0619
YTHDC2 C1211 (UniProt Q9H6S0) 0.311
XAB2 C225 (UniProt Q9HCS7) 0.438
BCAS3 C836 (UniProt Q9H6U6) -0.0114
BRD7 C338 (UniProt Q9NPI1) 0.244
POLE3 C51 (UniProt Q9NRF9) 0.122
FARSB C195 (UniProt Q9NSD9) 0.101
UTP3 C359 (UniProt Q9NQZ2) 0.14
FAM83D C19 (UniProt Q9H4H8) 0.478
OSGEPL1 C356 (UniProt Q9H4B0) 0.236
MDN1 C3492 (UniProt Q9NU22) 0.108
EHMT1 C276 (UniProt Q9H9B1) 0.326
RNPEP C181 (UniProt Q9H4A4) 0.00105
BAZ1A C586 (UniProt Q9NRL2) 0.181
MRPL47 C87 (UniProt Q9HD33) 0.0315
ACBD3 C129 (UniProt Q9H3P7) 0.122
STRN4 C17 (UniProt Q9NRL3) 0.228
GOPC C408 (UniProt Q9HD26) 0.246
RAVER2 C631 (UniProt Q9HCJ3) 0.239
RDH14 C97 (UniProt Q9HBH5) 0.171
SMC4 C190 (UniProt Q9NTJ3) 0.0701
MYO10 C1517 (UniProt Q9HD67) 0.0394
UNC45A C426 (UniProt Q9H3U1) 0.11
GLOD4 C269 (UniProt Q9HC38) -0.00484
SCAF1 C950 (UniProt Q9H7N4) 0.333
ACTR5 C48 (UniProt Q9H9F9) 0.0257
EXOSC3 C184 (UniProt Q9NQT5) 0.231
ISG20L2 C220 (UniProt Q9H9L3) -0.0878
ARFGAP3 C312 (UniProt Q9NP61) 0.418
PPA2 C302 (UniProt Q9H2U2) 0.0348

As a short view, some entries already given:
log2 ratio of iodoacetamide-alkyne labeling, inactive:
GLOD4 C269 (UniProt Q9HC38) -0.00484
SCAF1 C950 (UniProt Q9H7N4) 0.333
